Molecules are shown by their SMILES. The list shows a part of the results. The main result of the screen is listed elsewhere. These columns were measured beside it and carry no call. Most of these compounds were active or inconclusive in the main read-out, so they are no random draw. Potencies come from curve fits of mixed quality, noted in brackets.

The assay can be described thus: qHTS Assay to Find Inhibitors of Chronic Active B-Cell Receptor Signaling. The conditions noted are these: ABC-DLBCL IkBa-CBG/CBR reporter, luminescence ratio (green luciferase fused to IkBa over red control in TMD8 lymphoma cells), 4 h. The gist of the method: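 Cell line TMD8 (human ABC DLBCL), stably expressing tet-inducible CBG68-IkBa fusion and CBR; IMDM/0.5% FBS; cpd up to 46 uM; dox induction, 4 h, 37C/5% CO2; dual luminescence; green/red ratio; MG132 control.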
On the technique in general: qHTS replaces the single test concentration by a dilution series.

[1] abbreviates: measured here: CBR red luminescence, cell number.
[2] abbreviates: measured here: IkBa-CBG green luminescence.

Take `O=C(OCC(=O)N1CCc2ccccc2C1)c1c(F)cccc1Cl`: the AC50 (as a rule, the concentration at which the activity in the assay is half-maximal) under setting [1] was 2.59 µM [rising, partial curve, poor fit].
Take `Cc1ccc(NC(=O)COn2nnc3ccc(S(=O)(=O)N(C)C)cc32)cc1F`: under setting [1], the AC50 is 18.4 µM [falling, single point].
For the compound `CC(Sc1nc(-c2ccccc2)cc(=O)[nH]1)C(=O)O` (configuration not stated), the half-maximal activity concentration (AC50) under setting [1] was 0.146 µM [falling, full curve, poor fit].
Same read-out and setting: then `Cc1ccc2c(C)nc(NC3=NCN(Cc4ccccc4)CN3)nc2c1`, with 29.1 µM [falling, single point]; and `Cc1cc(NC(=O)/C=C/C(=O)N(c2ccccc2C)C(C(=O)NC2CCCC2)c2ccc(F)cc2)no1` (configuration not stated), with 7.08 µM [falling, partial curve, poor fit]; and `Cc1ccc(NC(=O)CC2COc3ccccc3O2)cc1` (configuration not stated), with 0.562 µM [rising, full curve, poor fit].
Turning to `O=c1cc(/C=C/c2ccccc2)oc2ccccc12`, the AC50 under setting [1] was 18.4 µM [falling, single point] and the half-maximal activity concentration (AC50) under setting [2] is 23.1 µM [falling, partial curve, poor fit].
With `Cc1cc(C(=O)NN=Cc2c(C)[nH]c3ccccc23)c(C)o1`, the AC50 under setting [1] was 14.6 µM [falling, partial curve, poor fit].
With `COc1ccc(-c2cc(C(=O)Nc3cccc(O)c3)no2)cc1`, the AC50 under setting [1] is 10 µM [falling, partial curve].
As for `NC(=O)COc1ccc(=O)n(-c2ccccc2)n1`, the AC50 under setting [1] was 29.1 µM [rising, single point].
Take `C#CCOCCOCCOCCNc1nc(N2CCN(C(=O)CCCCCCCCCCNC(=O)Cn3cc(C[C@@H](C)O)nn3)CC2)nc(N2CCN(C(=O)CCCCCCCCCCNC(=O)[C@@H]([C@H](C)O)n3cc(C)nn3)CC2)n1`: the AC50 under setting [1] was 4.11 µM [rising, full curve].
For the compound `CC(C)(C)c1ccc(OC2=CS(=O)(=O)c3ccccc32)cc1`, under setting [1], the AC50 is 1.84 µM [rising, partial curve].
Same read-out and setting: the figure for `CCCC(=O)NC(=S)Nc1cccc(NC(=O)c2ccccc2)c1` is 11.2 µM [falling, partial curve]; for `O=C(CN1CCC(n2nnc3cc(C(F)(F)F)ccc32)CC1)Nc1ccc2c(c1)OCCO2` it is 35.5 µM [falling, single point].
Take `COc1ccccc1N1CCN(C(=O)C(=O)c2cn(CC(=O)N3CCCCCC3)c3ccccc23)CC1`: under setting [1], the AC50 is 11.2 µM [falling, single point].
On to `CCCCC(=O)Nc1cc([N+](=O)[O-])ccc1F`, for which the AC50 under setting [1] is 25.1 µM [falling, single point].
Take `N#Cc1ccccc1Sc1ccccc1C(=O)OCc1nnc(-c2ccccc2)o1`: the AC50 under setting [1] is 29.1 µM [falling, single point].
On to `CSc1nc(N)nc(SCC(=O)Nc2cccc(F)c2)c1C#N`, for which the AC50 under setting [1] was 2.31 µM [falling, full curve].
Still for that read-out and setting: then `Cc1ccc(OCCCC(=O)NNC(=O)c2ccccn2)cc1`, with 29.1 µM [rising, single point]; and `Cc1ccc(C(=O)O/N=C(\N)c2cccnc2)cc1[N+](=O)[O-]`, with 2.31 µM [rising, full curve].
With `CC(C)c1ccc(Nc2cnn(C34CC5CC(CC(CC(=O)O)(C5)C3)C4)c(=O)c2Cl)cc1`, under setting [1], the AC50 was 14.6 µM [rising, partial curve, poor fit].
Take `CC1(C)SC(=S)N(/N=C/c2ccccc2O)C1N(O)C(=O)Nc1ccccc1` (configuration not stated): the AC50 was 10 µM [falling, partial curve, poor fit] under setting [1] and 3.98 µM [rising, partial curve, poor fit] under setting [2].
In the case of `COc1ccc(OCCSCc2nnc(NC(=O)Nc3ccc(Cl)cc3)s2)cc1`, under setting [1], the AC50 is 9.2 µM [rising, partial curve].
As to `Cc1ccc2c(c1)NC(=O)[C@@]1(C)[C@@H](c3ccccc3)[C@H]3COc4ccc(Cl)cc4[C@@H]3N1C2=O`, the AC50 under setting [1] is 2.91 µM [falling, full curve].
With `COc1ccc(-c2cc(C(=O)Nc3nc4c(C)cccc4s3)c3ccccc3n2)cc1OC`, under setting [1], the AC50 was 2.51 µM [falling, partial curve, poor fit].
As for `O=c1c2c(nc3cc(-c4ccccc4)[nH]n13)CCS2`, the AC50 under setting [1] is 0.447 µM [falling, full curve].
Regarding `Fc1ccc(-n2nnnc2-c2cnc(-c3cccs3)nc2C(F)(F)F)cc1`, under setting [1], the AC50 is 35.5 µM [falling, single point].
As for `C/C(O)=C(/C=NCC(=O)O)C(=O)Nc1nccs1`, the AC50 under setting [1] was 12.6 µM [falling, partial curve, poor fit].
As to `O=C(O)COc1ccccc1/C=N/NC(=O)c1ccc(F)cc1`, the AC50 under setting [1] is 15.8 µM [falling, partial curve, poor fit].
On to `Cc1cccc(NC(=O)c2ccc(S(=O)(=O)N3CCOCC3)cc2)c1C`, for which, under setting [1], the AC50 is 35.5 µM [falling, single point].
Regarding `CC1C=Cc2ccccc2N1C(=O)c1ccccc1` (configuration not stated), under setting [1], the AC50 was 10 µM [falling, partial curve, poor fit].
Regarding `Cc1ccccc1/C=N/N=C1/NC(=O)CCS1`, the AC50 under setting [1] was 0.631 µM [rising, full curve, poor fit].
For the compound `CC(C)c1ccc(C2C3CSCC=C3C(C#N)=C(N)C2(C#N)C#N)cc1` (configuration not stated), under setting [1], the AC50 is 29.1 µM [falling, single point].
Regarding `Cc1ccc(C2CC(c3cccs3)=NN2C(=O)CCl)cc1` (configuration not stated), the AC50 under setting [1] was 7.08 µM [falling, partial curve, poor fit].
Take `Cn1c(=O)c2c(nc(N/N=C/c3cccnc3)n2Cc2ccc(F)cc2)n(C)c1=O`: the AC50 by setting is: under setting [1], 3.16 µM [falling, full curve, poor fit]; under setting [2], 2.82 µM [rising, full curve, poor fit].
For `COc1ccccc1C1=NC(c2ccc(F)cc2)N=C1C` (configuration not stated), the AC50 under setting [1] was 14.1 µM [falling, partial curve].
Consider `Cc1cc(C)c2nc(SCC(=O)Nc3ccc(S(=O)(=O)N4CCCC4)cc3)c(C)cc2c1`, for which the AC50 under setting [1] was 29.1 µM [rising, single point].
As for `Cc1cc(C)c2nc(N3CCC(C(=O)NCCCN4CCCCC4)CC3)sc2c1`, the AC50 under setting [1] was 14.6 µM [falling, partial curve].
Regarding `S=c1[nH]nc(-c2cc(-c3ccccc3)n[nH]2)n1/N=C/c1ccc(Cl)cc1`, under setting [1], the AC50 was 35.5 µM [rising, single point].

These data come from PubChem BioAssay AID493014 (National Center for Advancing Translational Sciences (NCATS), 2011).
